From PubChem BioAssay AID434970 (Sanford-Burnham Center for Chemical Genomics, 2010)
This is one part of the list.

System: intestinal alkaline phosphatase [Mus musculus]
Assay: activators of mouse IAP, confirmation, biochemical, luminescence, single concentration (AID 434970)
Details: purified mouse IAP, CDP-Star luminescence, 30 min; measured here: IAP activation factor; at 10 µM; stronger effect = higher value

Compound | activation factor
O=C(COc1ccccc1)OC1CN2CCC1CC2 (stereo not drawn) | 0.859
O=[N+]([O-])c1cc([N+](=O)[O-])c(-c2ccn[nH]2)s1 | 0.316
COc1ccc(OP(C)(=O)Nc2cccc(F)c2)cc1 (stereo not drawn) | 0.97
O=P1(Nc2ccccn2)COc2ccccc2OC1 | 1.07
CCOP(C)(=S)SCC(=O)NC(C)(CC)C(=O)O (stereo not drawn) | 0.904
COc1ccc(OP(C)(=O)Nc2cccc(Br)c2)cc1 (stereo not drawn) | 1.06
CCN(CC)CC(O)COC(=O)C(O)(c1ccccc1)C1CCCCC1 (stereo not drawn) | 0.954
C[N+]1=C2C=CC=CC=C2SC12C([N+](=O)[O-])=CC([N+](=O)[O-])=C[C-]2[N+](=O)[O-] (stereo not drawn) | 0.251
